Publication doi:10.1101/2025.02.21.639583
Like-named read-outs stand apart in the source and are kept apart here. Results are given in words; binding and its absence hold for the method and conditions named. Binding seen in cells or lysates may run through a third protein. Some binding calls cover weakened binding; strength is not graded here. Sequences can lack the tags named with a protein. Values belong to the molecule of their own block, whether it stands above or below them.

What was measured:
[1] = molecular target: T1, Ldm1-GFP (Lipid Droplet Motility 1 / Yer085c, C-terminally GFP-tagged, TEF2 promoter) (S. cerevisiae) (UniProt P40058); experiment: co-IP
T1 sequence: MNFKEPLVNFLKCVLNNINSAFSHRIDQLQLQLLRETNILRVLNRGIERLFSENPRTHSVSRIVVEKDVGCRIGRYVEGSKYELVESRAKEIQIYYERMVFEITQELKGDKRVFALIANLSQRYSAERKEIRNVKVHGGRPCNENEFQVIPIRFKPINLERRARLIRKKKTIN

[2] = molecular target: T1, Ldm1-GFP (Lipid Droplet Motility 1 / Yer085c, C-terminally GFP-tagged, TEF2 promoter) (S. cerevisiae); experiment: co-IP; remark: listed apart in the source
[3] = molecular target: T2, GST-tagged Ldm1 (S. cerevisiae) (UniProt P40058); experiment: pull-down
T2 sequence: T1 sequence

binding [1]: binds
Molecule: Myo2-3xHA (from UniProt P19524 1-1574)

binding [2]: binds
B1: Ldo16 (LD surface protein) (protein, UniProt P40219 1-148)
chain: MVSTATFFFFVYLTLFVVIGFFSSLFIIPLLGISFVFAIGVVSFGFCSNMSFKMAQLIYVRADAFLKKVLDKMALQTQPAQLQEPQEPLSTLRPVSNPTIPSPLRQTARPSKFVTEEDVIFEPVSAQSAIARSLETTANKAGNKFQLS

binding [3]: binds
B2: GFP-Myo2-GTD(1113-1574) (domain or fragment, UniProt P19524 1113-1574)
chain: MMLENSDLSPNDLNLKSRSTPSSGNNHIDSLSVDRENGVNATQINEELYRLLEDTEILNQEITEGLLKGFEVPDAGVAIQLSKRDVVYPARILIIVLSEMWRFGLTKQSESFLAQVLTTIQKVVTQLKGNDLIPSGVFWLANVRELYSFVVFALNSILTEETFKNGMTDEEYKEYVSLVTELKDDFEALSYNIYNIWLKKLQKQLQKKAINAVVISESLPGFSAGETSGFLNKIFANTEEYTMDDILTFFNSIYWCMKSFHIENEVFHAVVTTLLNYVDAICFNELIMKRNFLSWKRGLQLNYNVTRLEEWCKTHGLTDGTECLQHLIQTAKLLQVRKYTIEDIDILRGICYSLTPAQLQKLISQYQVADYESPIPQEILRYVADIVKKEAALSSSGNDSKGHEHSSSIFITPETGPFTDPFSLIKTRKFDQVEAYIPAWLSLPSTKRIVDLVAQQVVQDGH
